PubChem BioAssay AID330 (DTP/NCI, 2004)
The list does not hold the whole screen: it is rich in T/C values a quarter to a half above the control, in often repeated tests (any T/C) and in doses without a T/C. Further doses and runs are listed elsewhere. T/C: endpoint of the treated group in % of that of the vehicle group. Some doses have a count of surviving animals in place of a T/C: the source holds a T/C of zero for them, seemingly a mark for toxic or unscored doses. Some survivor counts are full or nearly so, which does not show that the dose was tolerated: survival well below the control is almost never listed, so the zero probably covers shortened survival too. Counts of survivors are from the toxicity check (mostly the fifth day) where no day follows; animals may have died later. Schedule codes are those of the source, read here as Q, the interval in days (D) or hours (H), X, the number of doses. Some entries hold several experiments; the values are given in rising order. For survival time, this PubChem deposit counts one and a half times the control or more as active, and values a quarter to a half above the control carry no call in these data; other NCI protocols may use other cut-offs. Some T/C values are followed by the survivors on the day toxicity was checked, most often the fifth; where none is given, no animal had died by that day.

System: P388 leukemia ip, CD2F1 mice, survival T/C
Assay: NCI In Vivo Anticancer Drug Screen. Data for tumor model P388 Leukemia (intraperitoneal) in CD2F1 (CDF1) mice
Conditions: T/C endpoint: median survival time, higher T/C = longer survival
[1] = dose: 100.0 mg/kg/injection, schedule: Q01DX009 (ip), vehicle: saline
[2] = dose: 200.0 mg/kg/injection, schedule: Q01DX005 (ip), vehicle: Klucel (hydroxypropylcellulose) (HPC)
[3] = dose: 200.0 mg/kg/injection, schedule: Q01DX009 (ip), vehicle: saline with Tween-80
[4] = dose: 100.0 mg/kg/injection, schedule: Q01DX005 (ip), vehicle: saline with Tween-80
[5] = dose: 200.0 mg/kg/injection, schedule: Q01DX005 (ip), vehicle: saline with Tween-80

COc1ccc2c(NCCCCCCCCNc3c4ccccc4nc4cc(OC)ccc34)c3ccccc3nc2c1
T/C (dose: 0.31 mg/kg/injection, schedule: Q01DX009 (ip), vehicle: other): 129 % of control
T/C (dose: 0.62 mg/kg/injection, schedule: Q01DX009 (ip), vehicle: other): 134 % of control
T/C (dose: 0.63 mg/kg/injection, schedule: Q01DX009 (ip), vehicle: other): 144 and 146 % of control
T/C (dose: 1.25 mg/kg/injection, schedule: Q01DX009 (ip), vehicle: other): 139, 156, 166, 174 % of control
T/C (dose: 2.5 mg/kg/injection, schedule: Q01DX009 (ip), vehicle: other): 134, 138, 157, 166 % of control
T/C (dose: 5.0 mg/kg/injection, schedule: Q01DX009 (ip), vehicle: other): 87, 135, 157, 166 % of control
survivor count (dose: 10.0 mg/kg/injection, schedule: Q01DX009 (ip), vehicle: other): 3 of 4 and 6 of 6
survivor count (dose: 15.0 mg/kg/injection, schedule: Q01DX009 (ip), vehicle: other): 2 of 4
survivor count (dose: 20.0 mg/kg/injection, schedule: Q01DX009 (ip), vehicle: other): 0 of 4 and 2 of 6

O=C(CNC(=O)Nc1ccc(C2=NCCN2)cc1)Nc1ccc(C2=NCCN2)cc1
T/C (dose: 50.0 mg/kg/injection, schedule: Q01DX009 (ip), vehicle: saline with Tween-80): 131 % of control

CCOC(=O)c1ccc(N=C=S)cc1
survivor count (dose: 50.0 mg/kg/injection, schedule: Q01DX009 (ip), vehicle: distilled water + Tween-80): 4 of 6
survivor count (dose: 100.0 mg/kg/injection, schedule: Q01DX009 (ip), vehicle: distilled water + Tween-80): 3 of 6
survivor count (dose: 200.0 mg/kg/injection, schedule: Q01DX009 (ip), vehicle: distilled water + Tween-80): 0 of 6
survivor count (dose: 400.0 mg/kg/injection, schedule: Q01DX009 (ip), vehicle: distilled water + Tween-80): 0 of 6

CCCCCCCCCCCCOP(=O)(N1CC1(C)C)N1CC1(C)C (stereo not drawn)
T/C (dose: 10.0 mg/kg/injection, schedule: Q01DX001 (ip), vehicle: saline with Tween-80): 99, 100, 104, 105 % of control
T/C (dose: 20.0 mg/kg/injection, schedule: Q01DX001 (ip), vehicle: saline with Tween-80): 101, 102, 106, 122 % of control
T/C (dose: 40.0 mg/kg/injection, schedule: Q01DX001 (ip), vehicle: saline with Tween-80): 102, 111, 112, 122 % of control
T/C (dose: 80.0 mg/kg/injection, schedule: Q01DX001 (ip), vehicle: saline with Tween-80): 101, 108, 110, 114 % of control [5 of 6 alive]

COc1ccc(/C=C2/C(=O)N(c3ccccc3)N=C2C)c(OC)c1
survivor count (dose: 120.0 mg/kg/injection, schedule: Q01DX005 (ip), vehicle: Klucel (hydroxypropylcellulose) (HPC)): 6 of 6

C=CCN(CC=C)C1CCOC(OC)C1O (stereo not drawn)
T/C (dose: 240.0 mg/kg/injection, schedule: Q01DX005 (ip), vehicle: saline): 128 % of control

CCOP(=O)(CC(=O)c1cc2ccccc2[nH]1)OCC
survivor count [1]: 6 of 6

CCN(CC)CCC(=O)Nc1cccc2c1C(=O)c1c(c(O)c3ccccc3c1O)C2=O
survivor count (dose: 200.0 mg/kg/injection, schedule: Q04DX003 (ip), vehicle: Klucel (hydroxypropylcellulose) (HPC)): 3 of 6

OC(c1cc(-c2cccc(Cl)c2)nc2ccccc12)C1CCCCN1 (stereo not drawn)
survivor count [2]: 1 of 5

N#Cc1ncc(-c2ccccc2)nc1Cl
survivor count [3]: 3 of 6

CN(C)CCSc1cccc2c1C(=O)c1cccc(SCCN(C)C)c1C2=O
survivor count (dose: 25.0 mg/kg/injection, schedule: Q01DX009 (ip), vehicle: saline): 6 of 6
survivor count (dose: 50.0 mg/kg/injection, schedule: Q01DX009 (ip), vehicle: saline): 6 of 6
survivor count (dose: 50.0 mg/kg/injection, schedule: Q01DX009 (ip), vehicle: water): 6 of 6
survivor count [1]: 6 of 6
survivor count (dose: 100.0 mg/kg/injection, schedule: Q01DX009 (ip), vehicle: water): 4 of 6
survivor count (dose: 200.0 mg/kg/injection, schedule: Q01DX009 (ip), vehicle: saline): 6 of 6
survivor count (dose: 400.0 mg/kg/injection, schedule: Q01DX009 (ip), vehicle: saline): 0 of 6

Nc1cc2c3c(cccc3c1)C(=O)N2
survivor count (dose: 400.0 mg/kg/injection, schedule: Q01DX001 (ip), vehicle: saline with Tween-80): 3 of 6

CCSCCC(N)C(=O)O (stereo not drawn)
survivor count (dose: 100.0 mg/kg/injection, schedule: Q01DX009 (ip), vehicle: saline with Tween-80): 4 of 6
survivor count [3]: 4 of 6
survivor count (dose: 400.0 mg/kg/injection, schedule: Q01DX009 (ip), vehicle: saline with Tween-80): 4 of 6

N#C/C(=N\NC(=O)c1ccccc1)c1ccccc1
survivor count [4]: 6 of 6
survivor count [5]: 6 of 6

Cc1nc2sc3c(c2c(=N)n1N)CCCC3
survivor count (dose: 50.0 mg/kg/injection, schedule: Q01DX001 (ip), vehicle: Klucel (hydroxypropylcellulose) (HPC)): 0 of 6
survivor count (dose: 100.0 mg/kg/injection, schedule: Q01DX001 (ip), vehicle: Klucel (hydroxypropylcellulose) (HPC)): 0 of 6
survivor count (dose: 200.0 mg/kg/injection, schedule: Q01DX001 (ip), vehicle: Klucel (hydroxypropylcellulose) (HPC)): 0 of 6
survivor count (dose: 400.0 mg/kg/injection, schedule: Q01DX001 (ip), vehicle: Klucel (hydroxypropylcellulose) (HPC)): 0 of 6

N#CC(=O)Nc1ccc(F)cc1
survivor count (dose: 30.0 mg/kg/injection, schedule: Q01DX005 (ip), vehicle: saline with Tween-80): 1 of 6
survivor count (dose: 60.0 mg/kg/injection, schedule: Q01DX005 (ip), vehicle: saline with Tween-80): 0 of 6
survivor count (dose: 120.0 mg/kg/injection, schedule: Q01DX005 (ip), vehicle: saline with Tween-80): 0 of 6
survivor count (dose: 240.0 mg/kg/injection, schedule: Q01DX005 (ip), vehicle: saline with Tween-80): 0 of 6

C=C1C(=O)OC2/C=C(\C)CC/C=C(/C(=O)OC)C(OC(=O)C(C)C(C)O)C(OC(=O)C(C)(O)C(C)O)C12 (stereo not drawn)
T/C (dose: 3.0 mg/kg/injection, schedule: Q01DX009 (ip), vehicle: Klucel (hydroxypropylcellulose) (HPC)): 134 % of control
T/C (dose: 4.0 mg/kg/injection, schedule: Q01DX009 (ip), vehicle: Klucel (hydroxypropylcellulose) (HPC)): 125 % of control
survivor count (dose: 16.0 mg/kg/injection, schedule: Q01DX009 (ip), vehicle: Klucel (hydroxypropylcellulose) (HPC)): 3 of 6
survivor count (dose: 24.0 mg/kg/injection, schedule: Q01DX009 (ip), vehicle: Klucel (hydroxypropylcellulose) (HPC)): 4 of 6
survivor count (dose: 32.0 mg/kg/injection, schedule: Q01DX009 (ip), vehicle: Klucel (hydroxypropylcellulose) (HPC)): 0 of 6

CNS(=O)(=O)c1c([N+](=O)[O-])ncn1C
T/C (dose: 50.0 mg/kg/injection, schedule: Q01DX009 (ip), vehicle: Klucel (hydroxypropylcellulose) (HPC)): 131 % of control
T/C (dose: 100.0 mg/kg/injection, schedule: Q01DX009 (ip), vehicle: Klucel (hydroxypropylcellulose) (HPC)): 143 % of control
survivor count (dose: 200.0 mg/kg/injection, schedule: Q01DX009 (ip), vehicle: Klucel (hydroxypropylcellulose) (HPC)): 0 of 6

C=CCCn1nnc(-c2ccccc2)n1
T/C (dose: 100.0 mg/kg/injection, schedule: Q04DX003 (ip), vehicle: saline with Tween-80): 130 % of control

O=NN(CCCl)C(=O)Oc1ccc(Cl)cc1Cl
T/C (dose: 12.5 mg/kg/injection, schedule: Q01DX001 (ip), vehicle: saline with Tween-80): 128 % of control
T/C (dose: 50.0 mg/kg/injection, schedule: Q01DX001 (ip), vehicle: saline with Tween-80): 131 % of control

CCCCCCCN(CCCCCCC)C(=N)c1ccc(OC)c2ccccc12
survivor count (dose: 50.0 mg/kg/injection, schedule: Q01DX005 (ip), vehicle: Klucel (hydroxypropylcellulose) (HPC)): 1 of 5
survivor count (dose: 100.0 mg/kg/injection, schedule: Q01DX005 (ip), vehicle: Klucel (hydroxypropylcellulose) (HPC)): 0 of 5
survivor count [2]: 0 of 5

CN=C(N)NN=C(c1ccc(C)cc1)c1ccc(C)cc1
survivor count (dose: 50.0 mg/kg/injection, schedule: Q04DX002 (ip), vehicle: saline with Tween-80): 3 of 6
survivor count (dose: 400.0 mg/kg/injection, schedule: Q04DX002 (ip), vehicle: saline with Tween-80): 3 of 6

CCCCC(CC)CN1CN2CN(CC(CC)CCCC)CC2(C)C1 (stereo not drawn)
survivor count [4]: 4 of 6
survivor count [5]: 0 of 6
